Values from PubChem BioAssay AID1259279 (Sanger Institute, 2017).
Here is one part, drawn at random, of 794 deposited reagents. In the full data, 11 (1.4%) are marked active. 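Calls reflect knock-down alone in the vehicle arm, not drug synergy.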 A number with no mark means an inactive call. No viability above 1 is reported: the scale is capped. Further read-outs or replicates are left out here. The record does not give: the amount of reagent, the time to read-out.

- Screen: 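Kinase-wide knock-down seeking synergy with BYL719, cetuximab or trametinib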 (primary screen)
- System: LS180 human colorectal cancer cells
- Knock-down reagent: siRNA pool against human genes
- Treatment: anchor drug BYL719 at 1 µM, cetuximab at 5 µg/ml or trametinib at 10 nM, or DMSO vehicle only
- Read-out: 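Viability as a fraction of non-targeting control and as a replicate-averaged robust z-score, with separate synergy scores for BYL719, cetuximab and trametinib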
- Scale: viability z-score, no drug: higher = more viable cells after knock-down; viability, no drug: higher = more viable cells
- Call rule: 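a knock-down is called active, meaning essential, if its viability z-score in vehicle alone falls below -3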
- Meaning of the calls: active = essential (knock-down alone cuts viability); inactive = no change without drug

{"gene symbol": "ATR (ATR checkpoint kinase)", "viability z-score, no drug": -0.451, "viability, no drug (fraction)": 0.857}
{"gene symbol": "INSR (insulin receptor)", "viability z-score, no drug": 0.238, "viability, no drug (fraction)": 0.932}
{"gene symbol": "SGK2 (serum/glucocorticoid regulated kinase 2)", "viability z-score, no drug": -0.664, "viability, no drug (fraction)": 0.834}
{"gene symbol": "PRPS1L1 (phosphoribosyl pyrophosphate synthetase 1 like 1)", "viability z-score, no drug": 0.187, "viability, no drug (fraction)": 0.927}
{"gene symbol": "AXL (AXL receptor tyrosine kinase)", "viability z-score, no drug": 0.126, "viability, no drug (fraction)": 0.92}
{"gene symbol": "MAP3K19 (mitogen-activated protein kinase kinase kinase 19)", "viability z-score, no drug": -0.557, "viability, no drug (fraction)": 0.846}
{"gene symbol": "CAMKK1 (calcium/calmodulin dependent protein kinase kinase 1)", "viability z-score, no drug": 0.446, "viability, no drug (fraction)": 0.955}
{"gene symbol": "RIOK1 (RIO kinase 1)", "viability z-score, no drug": -1.76, "viability, no drug (fraction)": 0.715}

No new results follow: 2 of the entries above.
{"gene symbol": "INSR (insulin receptor)", "viability z-score, no drug": 0.238, "viability, no drug (fraction)": 0.932}
{"gene symbol": "SGK2 (serum/glucocorticoid regulated kinase 2)", "viability z-score, no drug": -0.664, "viability, no drug (fraction)": 0.834}

Further records follow.
{"gene symbol": "TAOK3 (TAO kinase 3)", "viability z-score, no drug": -1.48, "viability, no drug (fraction)": 0.745}
{"gene symbol": "MPP1 (MAGUK p55 scaffold protein 1)", "viability z-score, no drug": 0.86, "viability, no drug (fraction)": 1}
{"gene symbol": "PIP5K1C (phosphatidylinositol-4-phosphate 5-kinase type 1 gamma)", "viability z-score, no drug": -1.77, "viability, no drug (fraction)": 0.713}
{"gene symbol": "MARK2 (microtubule affinity regulating kinase 2)", "viability z-score, no drug": -0.561, "viability, no drug (fraction)": 0.845}
